The test system of data set [1] is mouse ADAMTS7. In words: TMT10 TAILS N-terminomics, SMC1 experiment (Ad-mADAMTS7 WT vs EQ vs Luc, technical replicates, trypsin digest). In kind it is cell-based. Conditions: for SMC1 TAILS.total Intensity: TAILS HC Overlap, total intensity of the peptide. The essentials: (§1)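 Full-length mouse ADAMTS7 (WT or E373Q mutant, C-terminal 3xFLAG) or luciferase was transduced via adenovirus, 50 MOI, into HCA-SMC (SMC1, SMC2) or HUVEC. SMC1: pooled media, technical triplicates 400 ug; SMC2: process triplicates 300 ug; HUVEC: process triplicates 200 ug, bFGF2 10 ng/ml.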

For data set [2], the system named is mouse ADAMTS7. In words: TMT10 TAILS N-terminomics, SMC2 experiment (process replicates, trypsin/AspN digest). It counts as cell-based. The settings on record: for SMC2 TAILS.total Intensity: SMC2 experiment, total intensity of the N-terminal (TAILS) peptide. The gist of the method:
as §1

Data set [3] relates to mouse ADAMTS7. Nature of the data set: TMT10 TAILS N-terminomics, HUVEC experiment (process replicates, trypsin/AspN digest). It counts as cell-based, human. Conditions: for ATS7_HUVEC_TAILS_frxns_mATS7inDB_AspGluN.total Intensity: HUVEC TAILS experiment, total MS intensity of the N-terminal (neo-N-terminal) peptide identified by TAILS_id; for HUVEC TAILS.total Intensity: HUVEC experiment, total intensity of the N-terminal (TAILS) peptide. The essentials: as §1

Setting [4] is: TAILS N-terminal peptide signal, SMC scale-up fractions, mouse ADAMTS7, label = TAILS_id (gene symbol_StartAA).
The mark [5] stands for this setting: total intensity of the N-terminal peptide spectra, SMC rd2 TAILS fractions, AspN/GluC search.
Where [6] appears, read: SMC rd2 TAILS, AspGluN search, total spectral intensity of the N-terminal peptide (TAILS_id = gene_StartAA cleavage site).
The mark [7] stands for this setting: TAILS N-terminal peptide identified in SMC conditioned media (scale-up, fractions), mouse ADAMTS7, value listed per TAILS_id (protein_StartAA).

For “FN1_36 (MVQPQSPVAVSQSKPGCYDNGKHYQINQQWER; listed as Homo sapiens)”, the “SMC1 TAILS.total Intensity” value in data set [1] is given as 4.40E+10. In data set [1] (setting [4]), this substance gave a TAILS_SMC_Scaleup_fxns_mATS7i of 4.40E+10. Besides, the “SMC2 TAILS.total Intensity” value in data set [2] worked out at 1.54E+11. Moreover, the ATS7_SMC_rd2_TAILS_frxns_matS7inDB_AspGluN_retry.totalIntensity in data set [2] (setting [5]) is on record as 1.54E+11. Moreover, in data set [3], the “ATS7_HUVEC_TAILS_frxns_mATS7inDB_AspGluN.total Intensity” value is on record as 1.76E+11 and the “HUVEC TAILS.total Intensity” value was found to be 1.76E+11.
As for “FN1_40 (QSPVAVSQSKPGCYDNGKHYQINQQWER; listed as Homo sapiens)”, in data set [1], the “SMC1 TAILS.total Intensity” value is given as 3.67E+09. The TAILS_SMC_Scaleup_fxns_mATS7i in data set [1] (setting [4]) worked out at 3.67E+09. For the same substance, in data set [2], the “SMC2 TAILS.total Intensity” value was 3.29E+09. In data set [2] (setting [5]), this substance returned an ATS7_SMC_rd2_TAILS_frxns_matS7inDB_AspGluN_retry.totalIntensity of 3.29E+09. In data set [3], the “ATS7_HUVEC_TAILS_frxns_mATS7inDB_AspGluN.total Intensity” value is 1.37E+10 and the “HUVEC TAILS.total Intensity” value is recorded as 1.37E+10.
For the substance “FN1_886 (NQESTPVVIQQETTGTPR; listed as Homo sapiens)”, in data set [1], the “SMC1 TAILS.total Intensity” value is listed as 1.42E+09. The substance also returned a TAILS_SMC_Scaleup_fxns_mATS7i in data set [1] (setting [4]) of 1.42E+09. Also, the “SMC2 TAILS.total Intensity” value in data set [2] is 9.55E+08. For the same substance, in data set [3], the “ATS7_HUVEC_TAILS_frxns_mATS7inDB_AspGluN.total Intensity” value is 8.05E+09 and the “HUVEC TAILS.total Intensity” value worked out at 4.67E+09.
In the case of “FN1_1143 (LTPGVEYVYTIQVLR; listed as Homo sapiens)”, the “SMC1 TAILS.total Intensity” value in data set [1] came to 1.36E+08. Besides, the TAILS_SMC_Scaleup_fxns_mATS7i in data set [1] (setting [4]) turned out to be 1.36E+08. The same substance showed an ATS7_SMC_rd2_TAILS_frxns_matS7inDB_AspGluN_retry.totalIntensity in data set [2] (setting [5]) of 9.55E+08. Besides, the “ATS7_HUVEC_TAILS_frxns_mATS7inDB_AspGluN.total Intensity” value in data set [3] is on record as 4.67E+09.
For “FN1_1656 (SSSPVTGYR; listed as Homo sapiens)”, the “SMC1 TAILS.total Intensity” value in data set [1] is listed as 4.82E+09. This substance gave a TAILS_SMC_Scaleup_fxns_mATS7i in data set [1] (setting [4]) of 4.82E+09. The “SMC2 TAILS.total Intensity” value in data set [2] was found to be 2.00E+10. In data set [2] (setting [5]), this substance showed an ATS7_SMC_rd2_TAILS_frxns_matS7inDB_AspGluN_retry.totalIntensity of 2.00E+10. In data set [3], the “ATS7_HUVEC_TAILS_frxns_mATS7inDB_AspGluN.total Intensity” value stood at 2.23E+10 and the “HUVEC TAILS.total Intensity” value is reported as 2.23E+10.
Consider “HSPG2_275 (LLPGSVR; listed as Homo sapiens)”, for which, in data set [1], the “SMC1 TAILS.total Intensity” value came to 2.35E+07. Further, the TAILS_SMC_Scaleup_fxns_mATS7i in data set [1] (setting [4]) came to 2.35E+07. The “SMC2 TAILS.total Intensity” value in data set [2] was 1.16E+08. In data set [2] (setting [6]), this substance showed an ATS7_SMC_rd2_TAILS_frxns_matS7inDB_AspGluN_retry.totalIntensity of 1.16E+08. In data set [3], the “HUVEC TAILS.total Intensity” value was determined as 2.67E+07.
With “HSPG2_2331 (ANLAYPAGSTQPIR; listed as Homo sapiens)”, the “SMC1 TAILS.total Intensity” value in data set [1] was 7.64E+07. The TAILS_SMC_Scaleup_fxns_mATS7i in data set [1] (setting [4]) was found to be 7.64E+07. Also, in data set [2], the “SMC2 TAILS.total Intensity” value is listed as 2.66E+08. In addition, the ATS7_SMC_rd2_TAILS_frxns_matS7inDB_AspGluN_retry.totalIntensity in data set [2] (setting [6]) was 2.66E+08. For the same substance, in data set [3], the “ATS7_HUVEC_TAILS_frxns_mATS7inDB_AspGluN.total Intensity” value stood at 2.45E+09 and the “HUVEC TAILS.total Intensity” value is 2.45E+09.
For the substance “IGFBP7_101 (AAGGPGVSGVCVCKSR; listed as Homo sapiens)”, the “SMC1 TAILS.total Intensity” value in data set [1] stood at 5.68E+07. For the same substance, the TAILS_SMC_Scaleup_fxns_mATS7i in data set [1] (setting [7]) stood at 5.68E+07. For the same substance, the “SMC2 TAILS.total Intensity” value in data set [2] is listed as 4.97E+08. Further, the ATS7_SMC_rd2_TAILS_frxns_matS7inDB_AspGluN_retry.totalIntensity in data set [2] (setting [6]) stood at 4.97E+08. Further, in data set [3], the “ATS7_HUVEC_TAILS_frxns_mATS7inDB_AspGluN.total Intensity” value is reported as 1.12E+08 and the “HUVEC TAILS.total Intensity” value is given as 1.12E+08.
Consider “LOXL2_37 (FQQPAPEYHQPQAPANVAKIQLR; listed as Homo sapiens)”, for which, in data set [1], the “SMC1 TAILS.total Intensity” value is on record as 5.20E+09. For the same substance, the TAILS_SMC_Scaleup_fxns_mATS7i in data set [1] (setting [7]) was found to be 5.20E+09. Further, the “SMC2 TAILS.total Intensity” value in data set [2] is 9.09E+09. Also, in data set [2] (setting [6]), the ATS7_SMC_rd2_TAILS_frxns_matS7inDB_AspGluN_retry.totalIntensity amounted to 9.09E+09. In data set [3], the “ATS7_HUVEC_TAILS_frxns_mATS7inDB_AspGluN.total Intensity” value is 1.61E+09 and the “HUVEC TAILS.total Intensity” value was 1.61E+09.
As to “LOX_124 (WFQAGYSTSR; listed as Homo sapiens)”, in data set [1], the “SMC1 TAILS.total Intensity” value is reported as 1.65E+08. Further, in data set [1] (setting [7]), the TAILS_SMC_Scaleup_fxns_mATS7i stood at 1.65E+08. For the same substance, in data set [2], the “SMC2 TAILS.total Intensity” value is 1.64E+09. The ATS7_SMC_rd2_TAILS_frxns_matS7inDB_AspGluN_retry.totalIntensity in data set [2] (setting [6]) is 1.64E+09. Moreover, in data set [3], the “ATS7_HUVEC_TAILS_frxns_mATS7inDB_AspGluN.total Intensity” value amounted to 8.74E+07 and the “HUVEC TAILS.total Intensity” value is on record as 8.74E+07.
Turning to “LTBP1_393 (LTATNFR; listed as Homo sapiens)”, the “SMC1 TAILS.total Intensity” value in data set [1] turned out to be 9.30E+08. The substance further showed a TAILS_SMC_Scaleup_fxns_mATS7i in data set [1] (setting [7]) of 9.30E+08. Further, the “SMC2 TAILS.total Intensity” value in data set [2] worked out at 6.93E+09. For the same substance, the ATS7_SMC_rd2_TAILS_frxns_matS7inDB_AspGluN_retry.totalIntensity in data set [2] (setting [6]) is given as 6.93E+09. In addition, in data set [3], the “ATS7_HUVEC_TAILS_frxns_mATS7inDB_AspGluN.total Intensity” value amounted to 9.19E+08 and the “HUVEC TAILS.total Intensity” value was 9.19E+08.
“MAP4_815 (AVASTGPSSR; listed as Homo sapiens)”: the “SMC1 TAILS.total Intensity” value in data set [1] came out at 5.58E+08. In data set [1] (setting [7]), the TAILS_SMC_Scaleup_fxns_mATS7i was 5.58E+08. Further, the “SMC2 TAILS.total Intensity” value in data set [2] is 5.60E+08. Further, the ATS7_SMC_rd2_TAILS_frxns_matS7inDB_AspGluN_retry.totalIntensity in data set [2] (setting [6]) stood at 5.60E+08. In data set [3], the “ATS7_HUVEC_TAILS_frxns_mATS7inDB_AspGluN.total Intensity” value came to 6.08E+08 and the “HUVEC TAILS.total Intensity” value is given as 6.08E+08.
In the case of “MAP4_816 (VASTGPSSR; listed as Homo sapiens)”, in data set [1], the “SMC1 TAILS.total Intensity” value is listed as 1.57E+08. This substance also showed a TAILS_SMC_Scaleup_fxns_mATS7i in data set [1] (setting [7]) of 1.57E+08. Further, the “SMC2 TAILS.total Intensity” value in data set [2] is recorded as 8.83E+08. Moreover, the ATS7_SMC_rd2_TAILS_frxns_matS7inDB_AspGluN_retry.totalIntensity in data set [2] (setting [6]) is 8.83E+08. For the same substance, in data set [3], the “ATS7_HUVEC_TAILS_frxns_mATS7inDB_AspGluN.total Intensity” value is on record as 2.73E+08 and the “HUVEC TAILS.total Intensity” value is on record as 2.73E+08.
With “NID2_291 (HSSVPLGR; listed as Homo sapiens)”, in data set [1], the “SMC1 TAILS.total Intensity” value is listed as 2.94E+09. Besides, the TAILS_SMC_Scaleup_fxns_mATS7i in data set [1] (setting [7]) is on record as 2.94E+09. The “SMC2 TAILS.total Intensity” value in data set [2] turned out to be 6.67E+09. In addition, in data set [2] (setting [6]), the ATS7_SMC_rd2_TAILS_frxns_matS7inDB_AspGluN_retry.totalIntensity amounted to 6.67E+09. For the same substance, in data set [3], the “ATS7_HUVEC_TAILS_frxns_mATS7inDB_AspGluN.total Intensity” value was 5.96E+08 and the “HUVEC TAILS.total Intensity” value came to 5.96E+08.
For “SRGN_59 (LLPGESNKIPR; listed as Homo sapiens)”, in data set [1], the “SMC1 TAILS.total Intensity” value stood at 2.70E+09. The substance further displayed a TAILS_SMC_Scaleup_fxns_mATS7i in data set [1] (intensity of the N-terminal (TAILS) peptide in SMC scale-up TAILS experiment, fractions, peptide identified by TAILS_id (gene symbol_StartAA)) of 2.70E+09. In data set [2], the “SMC2 TAILS.total Intensity” value is on record as 2.86E+09. Besides, in data set [3], the “ATS7_HUVEC_TAILS_frxns_mATS7inDB_AspGluN.total Intensity” value is 2.32E+08 and the “HUVEC TAILS.total Intensity” value is 2.32E+08.

The record behind these values is patent US20240368668A1, “SUBSTRATES AND BIOMARKERS OF ADAMTS7” (The Broad Institute, Inc., priority 2021, published 2024).
